Inconclusive results and toxic doses are left out. How the source made its calls: active means survival T/C of 150% or more; inactive means T/C below 125% in these data.
Tested on: mice, LPC-1 plasma cell tumor ip, median survival T/C
Assay: NCI In Vivo Anticancer Drug Screen. Data for tumor model Lieberman Plasma Cell No. 1 (LPC-1) (intraperitoneal) in unknown mice
Conditions: endpoint: median survival time, schedule: Q01DX028 (sc), vehicle: water, higher = longer survival
Experimental: The antitumor activity of compounds was measured in mice bearing transplantable tumors. Survival or tumor size were measured and the results are expressed as the measurement made in the treated group (T) divided by the measurement made in the vehicle treated control group (C). The tumor model used in this assay is Lieberman Plasma Cell No. 1 (LPC-1) (intraperitoneal) in unknown mice

Measured: T/C

COc1cc2c(c(OC)c1OC)-c1ccc(OC)c(=O)cc1[C@@H](N)CC2
inactive: dose: 0.25 mg/kg/injection 110 % of control | dose: 0.5 mg/kg/injection 102 % of control | dose: 1.0 mg/kg/injection 94 % of control | dose: 2.0 mg/kg/injection 112 % of control | dose: 4.0 mg/kg/injection 105 % of control
